We go through ten substances from US6646113.

By UniProt entry, the sequences of proteins in these tests, tags left out. Where a name states a change or a piece, a line headed by the entry shows the natural chain unless it says otherwise.
UniProt Q9UHI6: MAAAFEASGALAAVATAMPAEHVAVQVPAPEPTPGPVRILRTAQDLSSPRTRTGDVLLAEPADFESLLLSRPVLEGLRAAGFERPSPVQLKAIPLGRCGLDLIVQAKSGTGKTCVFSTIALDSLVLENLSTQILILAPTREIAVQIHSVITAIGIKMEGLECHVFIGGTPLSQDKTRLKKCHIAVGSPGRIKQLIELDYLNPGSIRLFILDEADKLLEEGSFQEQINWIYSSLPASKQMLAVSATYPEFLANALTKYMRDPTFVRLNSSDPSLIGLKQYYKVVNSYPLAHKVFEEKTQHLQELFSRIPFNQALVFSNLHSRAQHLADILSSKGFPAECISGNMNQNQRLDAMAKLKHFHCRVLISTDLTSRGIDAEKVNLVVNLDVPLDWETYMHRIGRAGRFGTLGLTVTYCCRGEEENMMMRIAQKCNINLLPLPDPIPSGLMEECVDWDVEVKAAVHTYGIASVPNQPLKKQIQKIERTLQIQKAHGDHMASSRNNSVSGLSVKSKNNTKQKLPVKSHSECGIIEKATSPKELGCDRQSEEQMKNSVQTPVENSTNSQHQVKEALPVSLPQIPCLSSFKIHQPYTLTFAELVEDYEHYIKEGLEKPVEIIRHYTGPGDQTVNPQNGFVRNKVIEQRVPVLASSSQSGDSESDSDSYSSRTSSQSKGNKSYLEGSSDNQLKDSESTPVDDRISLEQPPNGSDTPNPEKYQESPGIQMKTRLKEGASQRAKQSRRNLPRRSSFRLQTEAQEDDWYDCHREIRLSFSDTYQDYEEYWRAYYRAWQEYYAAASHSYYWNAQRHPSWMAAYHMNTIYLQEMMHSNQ
UniProt Q16637: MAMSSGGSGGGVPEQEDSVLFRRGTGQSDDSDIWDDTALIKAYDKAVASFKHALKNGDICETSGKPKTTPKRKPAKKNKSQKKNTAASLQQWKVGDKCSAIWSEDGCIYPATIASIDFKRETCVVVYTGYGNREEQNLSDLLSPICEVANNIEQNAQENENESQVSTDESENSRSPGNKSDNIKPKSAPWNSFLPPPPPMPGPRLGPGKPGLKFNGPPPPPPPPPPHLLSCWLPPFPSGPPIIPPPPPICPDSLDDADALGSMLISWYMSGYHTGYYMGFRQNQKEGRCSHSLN
UniProt O14893: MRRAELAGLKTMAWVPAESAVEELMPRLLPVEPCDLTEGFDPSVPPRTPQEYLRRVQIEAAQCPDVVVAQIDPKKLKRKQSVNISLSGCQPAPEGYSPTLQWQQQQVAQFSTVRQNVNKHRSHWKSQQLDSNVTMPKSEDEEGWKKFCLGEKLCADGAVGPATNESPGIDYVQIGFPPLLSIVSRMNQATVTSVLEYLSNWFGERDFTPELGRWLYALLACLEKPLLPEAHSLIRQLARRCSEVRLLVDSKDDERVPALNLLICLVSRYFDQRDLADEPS
UniProt P62318: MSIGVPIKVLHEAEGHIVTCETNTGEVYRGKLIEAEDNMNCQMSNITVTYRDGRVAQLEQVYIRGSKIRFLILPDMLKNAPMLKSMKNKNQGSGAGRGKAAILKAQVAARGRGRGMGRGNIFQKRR

The target in assay [1] is GST-Gemin3 fusion protein (human) (UniProt Q9UHI6). Nature of the assay: GST pull-down of purified 6His protein.
The target is the same in assay [2]. Nature of the assay: GST pull-down of purified 6His protein, Western blot.
Assay [3] shares this target. The experiment in a line: GST pull-down of purified 6His protein, Western blot with anti-His-tag. (In general: A western blot detects proteins with antibodies after separation by electrophoresis.)
For assay [4], the target named is GST-SMN preincubated with His-SMN (SMN oligomer on beads) (human) (UniProt Q16637). The experiment in a line: GST pull-down after preincubation of GST-SMN with 6His-tag SMN.
Assay [5] has the same target. Nature of the assay: GST pull-down after preincubation of GST-SMN with 6His-SMN.
For assay [6], the target named is GST-SMN fusion protein (human) (UniProt Q16637). Nature of the assay: GST pull-down without preincubation.
Assay [7] has the same target. Nature of the assay: GST pull-down, 35S IVT protein.
Assay [8] has as its target GST-SMN preincubated with His-SMN (SMN oligomer on beads) (human) (UniProt Q16637). Nature of the assay: GST pull-down after preincubation of GST-SMN with His6-tagged SMN (FIG. 43).
Assay [9] has the same target. The experiment in a line: GST pull-down after preincubation of GST-SMN with His-SMN.
Assay [10] addresses GST-SIP1 fusion protein (human) (UniProt O14893). The experiment in a line: GST pull-down, 35S IVT protein (FIG. 39).
For assay [11], the target named is GST-Gemin3 fusion protein (human) (UniProt Q9UHI6). Nature of the assay: GST pull-down, 35S IVT protein.
Assay [12] has as its target GST-SIP1 fusion protein (human) (UniProt O14893). The experiment in a line: GST pull-down, 35S IVT protein.
Assay [13] addresses GST-SMN fusion protein (human) (UniProt Q16637). Nature of the assay: GST pull-down, 35S IVT protein (FIG. 44).
For assay [14] the target is unchanged. The experiment in a line: GST pull-down, 35S IVT protein, washes 200 mM to 1 M salt.
For assay [15] the target is unchanged. The experiment in a line: GST pull-down, 35S IVT protein (FIGS. 44-45).

These are yes or no findings as the source states them, for the method shown. Binding seen in cells or lysates may run through a third protein. Some binding calls cover weakened binding; strength is not graded here.

For “His-tagged SMN wild type, purified recombinant (from UniProt Q16637 1-294)”, the binding result in assay [1], in assay [2] and in [3] was “binds” each time.

In the case of “myc-tagged Gemin3 wild type, in vitro translated (from UniProt Q9UHI6 1-824)”, the binding entry in [4], in [5], in assay [6] and in assay [7] was “binds” throughout.

For the substance “SMN (human), in vitro translated and 35S-labeled (from UniProt Q16637 1-294)”, the binding entry in assay [8] and in [9] was “binds” throughout.

For “myc-tagged SMN wild type (from UniProt Q16637 1-294)”, the binding result in assay [10], in assay [11] and in [12] was “binds” in each case.

As for “myc-ΔN368C277Gemin3 (from UniProt Q9UHI6 369-547)”, the binding entry in [7] is “binds”.

With “myc-tagged SIP1 wild type (from UniProt O14893 1-280)”, the binding entry in assay [13] is given as “binds”.

Take “SIP1 (human), in vitro translated and 35S-labeled (from UniProt O14893 1-280)”: the binding entry in assay [8], in assay [9], in [14] and in [7] was “binds” each time.

“myc-tagged SIP1ΔN71 (from UniProt O14893 72-280)”: the binding result in [15] and in [13] was “binds” throughout.

Regarding “myc-tagged SMNY272C (from UniProt Q16637 1-294)”, in [12], the binding entry is on record as “binds”.

In the case of “Sm D3 protein, in vitro translated and 35S-labeled (from UniProt P62318 1-126)”, the binding entry in assay [11] is recorded as “binds”.
